Experimental data: patent publication US20150299792
For at least one entry, the source does not settle the construct or the ends of the probe. Results from cells or extracts need not show a direct contact. The comparison behind a weaker result is the experiment's own reference, which may not be listed here. Where a protein sequence is shown, tags need not be part of it.

Target: T1, ETV6 (TEL) (Homo sapiens) (UniProt P41212)
T1 sequence (looked up, limits assumed): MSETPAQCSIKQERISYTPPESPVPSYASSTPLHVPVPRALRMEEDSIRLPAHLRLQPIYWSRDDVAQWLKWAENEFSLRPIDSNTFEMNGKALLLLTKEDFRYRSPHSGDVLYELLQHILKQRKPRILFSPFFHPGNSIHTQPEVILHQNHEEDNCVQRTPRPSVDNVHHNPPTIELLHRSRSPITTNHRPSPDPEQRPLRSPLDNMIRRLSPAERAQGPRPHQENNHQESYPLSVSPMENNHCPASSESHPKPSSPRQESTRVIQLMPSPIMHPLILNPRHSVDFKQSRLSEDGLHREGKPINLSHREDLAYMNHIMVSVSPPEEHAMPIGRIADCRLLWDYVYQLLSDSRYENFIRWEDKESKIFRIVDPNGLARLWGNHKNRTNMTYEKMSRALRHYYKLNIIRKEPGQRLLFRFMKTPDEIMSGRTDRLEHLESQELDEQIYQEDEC
Assay: pull-down
Details: protein in an extract, label: desthiobiotin

Sequence | binding result (scrambled control probe, ETV6 depleted relative to N1, same buffer) | binding result (SILAC MS, single candidate shared by HeLa and Raji, enriched over scrambled probe, 150 mM NaCl, 50 mM Tris pH 8, 0.5% NP-40, 10 mM MgCl2, 4 C)
TTGAGAGAGAGAGAGAGAGAGATCCCTGAGAGAGAGAGAGAGAGAGA / AATCTCTCTCTCTCTCTCTCTCAGGGATCTCTCTCTCTCTCTCTCTC [EMSA3-Scram1 concatemer] | binds more weakly | 
TTGAGAGGAAGGAAAGGAAGGATCCCTGAGAGGAAGGAAAGGAAGGA / AATCCTTCCTTTCCTTCCTCTCAGGGATCCTTCCTTTCCTTCCTCTC [EMSA3 concatemer (BV677278/READ1 segment, two copies)] |  | binds
